Measurements reported in US20220380320A1 (priority 2019, published 2022).
Some entries share one result that the patent states for a list of compounds.

Test system: MERS-CoV
Format: cell-based

Q: How did the “inhibitory activity against viral proliferation and replication of MERS-CoV” value (“inhibitory activity” below) turn out when `Cc1cccc(C)c1OCC(=O)N[C@@H](Cc1ccccc1)[C@@H](O)C[C@H](Cc1ccccc1)NC(=O)[C@H](Cc1ccccc1)N1CCCNC1=O` [Compound 1, (S)-N-((2S,4S,5S)-5-(2-(2,6-dimethylphenoxy)acetamido)-4-hydroxy-1,6-diphenylhexane-2-yl)-2-(2-oxotetrahydropyrimidin-1(2H)-yl)-3-phenylpropanamide] was run?
A: effective inhibitory activity

Q: `Cc1cccc(C)c1OCC(=O)N[C@@H](Cc1ccccc1)[C@@H](O)C[C@H](Cc1ccccc1)NC(=O)[C@](C)(C(C)C)N1CCCNC1=O` [Compound 2, (S)-N-((2S,4S,5S)-5-(2-(2,6-dimethylphenoxy)acetamido)-4-hydroxy-1,6-diphenylhexane-2-yl)-2,3-dimethyl-2-(2-oxotetrahydropyrimidin-1(2H)-yl)butanamide] was tested. Which “inhibitory activity” value did it give?
A: effective inhibitory activity

Q: `Cc1cccc(C)c1OCC(=O)N[C@@H](Cc1ccccc1)[C@@H](O)C[C@H](Cc1ccccc1)NC(=O)[C@@](C)(C(C)C)N1CCCNC1=O` [Compound 3, (R)-N-((2S,4S,5S)-5-(2-(2,6-dimethylphenoxy)acetamido)-4-hydroxy-1,6-diphenylhexane-2-yl)-2,3-dimethyl-2-(2-oxotetrahydropyrimidin-1(2H)-yl)butanamide] was tested. Which “inhibitory activity” value did it give?
A: effective inhibitory activity

Q: For `Cc1cccc(C)c1OCC(=O)N[C@@H](Cc1ccccc1)[C@@H](O)C[C@H](Cc1ccccc1)NC(=O)C1(N2CCCNC2=O)CCCC1` [Compound 4, N-((2S,4S,5S)-5-(2-(2,6-dimethylphenoxy)acetamido)-4-hydroxy-1,6-diphenylhexan-2-yl)-1-(2-oxotetrahydropyrimidine-1 (2H)-yl) cyclopentanecarboxamide], which “inhibitory activity” value is on record?
A: effective inhibitory activity

Q: For `Cc1cccc(C[C@@H](C(=O)N[C@@H](Cc2ccccc2)C[C@H](O)[C@H](Cc2ccccc2)NC(=O)COc2c(C)cccc2C)N2CCCNC2=O)c1` [Compound 5, (S)-N-((2S,4S,5S)-5-(2-(2,6-dimethylphenoxy)acetamido)-4-hydroxy-1,6-diphenylhexane-2-yl)-2-(2-oxotetrahydropyrimidin-1(2H)-yl)-3-(m-tolyl)propanamide], which “inhibitory activity” value is on record?
A: effective inhibitory activity

Q: For `Cc1cccc(C)c1OCC(=O)N[C@@H](Cc1ccccc1)[C@@H](O)C[C@H](Cc1ccccc1)NC(=O)[C@H](Cc1ccc(F)cc1)N1CCCNC1=O` [Compound 7, (S)-N-((2S,4S,5S)-5-(2-(2,6-dimethylphenoxy)acetamido)-4-hydroxy-1,6-diphenylhexane-2-yl)-3-(4-fluorophenyl)-2-(2-oxotetrahydropyrimidin-1(2H)-yl)propanamide], which “inhibitory activity” value is on record?
A: effective inhibitory activity

Q: `Cc1cccc(C)c1OCC(=O)N[C@@H](Cc1ccccc1)[C@@H](O)C[C@H](Cc1ccccc1)NC(=O)[C@H](Cc1ccc(C(F)(F)F)cc1)N1CCCNC1=O` [Compound 8, (S)-N-((2S,4S,5S)-5-(2-(2,6-dimethylphenoxy)acetamido)-4-hydroxy-1,6-diphenylhexane-2-yl)-2-(2-oxotetrahydropyrimidin-1(2H)-yl)-3-(4-(trifluoromethyl)phenyl)propanamide] was tested. Which “inhibitory activity” value did it give?
A: effective inhibitory activity

Q: With `Cc1cccc(C)c1OCC(=O)N[C@@H](Cc1ccccc1)[C@@H](O)C[C@H](Cc1ccccc1)NC(=O)[C@H](Cc1ccc(C#N)cc1)N1CCCNC1=O` [Compound 9, (S)-3-(4-cyanophenyl)-N-((2S,4S,5S)-5-(2-(2,6-dimethylphenoxy)acetamido)-4-hydroxy-1,6-diphenylhexan-2-yl)-2-(2-oxotetrahydropyrimidin-1(2H)-yl)propanamide] as the molecule, how does the “inhibitory activity” value read?
A: effective inhibitory activity

Q: For `Cc1cccc(C)c1OCC(=O)N[C@@H](Cc1ccccc1)[C@@H](O)C[C@H](Cc1ccccc1)NC(=O)[C@H](Cc1cccs1)N1CCCNC1=O` [Compound 10, (S)-N-((2S,4S,5S)-5-(2-(2,6-dimethylphenoxy)acetamido)-4-hydroxy-1,6-diphenylhexane-2-yl)-2-(2-oxotetrahydropyrimidin-1(2H)-yl)-3-(thiophen-2-yl)propenamide], which “inhibitory activity” value is on record?
A: effective inhibitory activity
